The list shows a part of the results.
Columns and labels:
Assay in all cases: log2 fold change, soluble protein after heating vs DMSO (PISA); higher = thermal stabilisation; K562 lysate, 10 uM; active = over 0.2 and 3.5 SD of the protein, either way, in both replicates (recomputed)
[1] = compound: C1=CC=C(C=C1)[C@H](COC2=CC3=C(C=C2)NC(=O)N3)NC(=O)C4=CC=CN(C4=O)CC5=CC(=C(C=C5)F)F
In short: (§1)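 K562 pellets were dounce-homogenised in PBS pH 7.4 containing 1 mM MgCl2, and the crude extract, at 1 mg/mL protein, was exposed to 10 μM compound for 30 min. Aliquots were heated for 3 min across 48°C-58°C, pooled, brought to 0.5% NP-40 at 4°C and spun at 21,000xg for 90 min, with the supernatant taken as soluble protein. TMTpro 16plex LC-MS/MS with equalised channel sums quantified that protein. Values are log-two fold changes in thermal stability relative to solvent controls, taken from duplicates.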

Chains of the proteins cited; added tags and fusions are not shown. Lines headed by an entry give the natural chain unless they say otherwise; changes in a name come on top.
UniProt Q9P0R6: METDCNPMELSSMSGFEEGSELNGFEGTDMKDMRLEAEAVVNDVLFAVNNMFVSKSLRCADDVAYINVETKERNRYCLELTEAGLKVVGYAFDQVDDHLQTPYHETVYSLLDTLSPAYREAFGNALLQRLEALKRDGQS
UniProt Q9UKN8: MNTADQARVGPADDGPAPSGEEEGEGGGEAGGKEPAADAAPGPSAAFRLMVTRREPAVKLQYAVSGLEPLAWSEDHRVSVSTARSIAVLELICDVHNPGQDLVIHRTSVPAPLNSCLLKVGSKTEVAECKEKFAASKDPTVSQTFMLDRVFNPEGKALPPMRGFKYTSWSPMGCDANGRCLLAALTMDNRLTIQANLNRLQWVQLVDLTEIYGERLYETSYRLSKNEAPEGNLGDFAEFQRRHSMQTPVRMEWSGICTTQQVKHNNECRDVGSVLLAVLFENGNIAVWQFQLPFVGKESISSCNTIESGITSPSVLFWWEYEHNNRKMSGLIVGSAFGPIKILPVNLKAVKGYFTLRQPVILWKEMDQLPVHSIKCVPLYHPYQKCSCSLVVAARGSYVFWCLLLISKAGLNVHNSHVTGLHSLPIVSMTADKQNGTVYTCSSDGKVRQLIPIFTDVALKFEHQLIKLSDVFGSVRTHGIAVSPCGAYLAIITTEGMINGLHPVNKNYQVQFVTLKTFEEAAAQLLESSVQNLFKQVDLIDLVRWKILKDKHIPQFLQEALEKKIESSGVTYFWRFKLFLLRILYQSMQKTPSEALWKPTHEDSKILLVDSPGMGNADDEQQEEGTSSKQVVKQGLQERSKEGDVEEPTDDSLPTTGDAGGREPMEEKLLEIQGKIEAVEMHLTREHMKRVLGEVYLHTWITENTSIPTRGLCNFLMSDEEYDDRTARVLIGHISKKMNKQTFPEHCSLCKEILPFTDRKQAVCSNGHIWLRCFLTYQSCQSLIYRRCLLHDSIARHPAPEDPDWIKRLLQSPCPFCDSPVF
UniProt Q5JVS0: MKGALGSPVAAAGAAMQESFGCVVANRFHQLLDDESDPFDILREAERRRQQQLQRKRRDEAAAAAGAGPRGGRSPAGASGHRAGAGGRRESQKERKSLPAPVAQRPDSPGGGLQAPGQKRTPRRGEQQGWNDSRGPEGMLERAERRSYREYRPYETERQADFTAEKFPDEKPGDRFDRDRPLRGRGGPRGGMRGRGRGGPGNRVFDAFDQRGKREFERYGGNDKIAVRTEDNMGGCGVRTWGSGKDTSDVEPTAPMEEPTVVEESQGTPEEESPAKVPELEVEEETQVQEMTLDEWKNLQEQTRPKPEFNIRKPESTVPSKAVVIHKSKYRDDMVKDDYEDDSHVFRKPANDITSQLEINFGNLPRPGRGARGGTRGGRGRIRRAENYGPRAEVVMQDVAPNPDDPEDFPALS
UniProt P69905, whole entry, looked up: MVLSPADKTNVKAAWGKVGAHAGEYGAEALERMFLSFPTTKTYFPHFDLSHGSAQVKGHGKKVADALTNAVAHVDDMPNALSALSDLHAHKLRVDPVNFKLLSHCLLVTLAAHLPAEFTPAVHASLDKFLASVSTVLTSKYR
UniProt Q13888: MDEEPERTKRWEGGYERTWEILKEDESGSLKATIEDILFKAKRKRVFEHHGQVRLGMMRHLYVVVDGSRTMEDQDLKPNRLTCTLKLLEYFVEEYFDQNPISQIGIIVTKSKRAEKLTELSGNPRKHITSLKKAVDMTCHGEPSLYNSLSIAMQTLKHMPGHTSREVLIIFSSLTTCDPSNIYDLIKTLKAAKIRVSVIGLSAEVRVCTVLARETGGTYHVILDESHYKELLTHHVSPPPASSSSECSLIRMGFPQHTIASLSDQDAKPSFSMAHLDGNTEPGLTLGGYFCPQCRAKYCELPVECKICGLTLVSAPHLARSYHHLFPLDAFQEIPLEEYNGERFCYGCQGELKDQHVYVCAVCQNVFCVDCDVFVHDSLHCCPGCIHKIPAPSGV
UniProt Q6PII5: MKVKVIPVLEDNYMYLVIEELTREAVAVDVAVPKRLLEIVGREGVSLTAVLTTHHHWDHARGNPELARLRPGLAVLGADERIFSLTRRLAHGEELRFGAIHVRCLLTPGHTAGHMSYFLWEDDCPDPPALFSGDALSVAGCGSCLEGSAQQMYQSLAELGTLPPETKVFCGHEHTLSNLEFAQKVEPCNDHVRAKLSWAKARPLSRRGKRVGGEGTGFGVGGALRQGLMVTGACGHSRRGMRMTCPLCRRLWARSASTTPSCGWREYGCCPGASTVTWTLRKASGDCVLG
UniProt O15488: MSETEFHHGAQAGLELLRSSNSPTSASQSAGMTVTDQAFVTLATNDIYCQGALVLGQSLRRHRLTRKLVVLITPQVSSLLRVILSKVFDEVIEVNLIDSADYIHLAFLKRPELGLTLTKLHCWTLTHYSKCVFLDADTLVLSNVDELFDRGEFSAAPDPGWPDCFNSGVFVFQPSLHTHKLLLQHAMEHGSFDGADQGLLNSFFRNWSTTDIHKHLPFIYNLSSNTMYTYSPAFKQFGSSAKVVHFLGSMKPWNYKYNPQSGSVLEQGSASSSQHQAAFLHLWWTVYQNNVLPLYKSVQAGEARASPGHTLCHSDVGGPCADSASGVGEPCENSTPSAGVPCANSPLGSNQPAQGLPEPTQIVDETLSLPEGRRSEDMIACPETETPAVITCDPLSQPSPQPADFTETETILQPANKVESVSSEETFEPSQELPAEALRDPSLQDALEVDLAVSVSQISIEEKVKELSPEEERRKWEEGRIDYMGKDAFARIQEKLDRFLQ
UniProt Q9Y5Z7: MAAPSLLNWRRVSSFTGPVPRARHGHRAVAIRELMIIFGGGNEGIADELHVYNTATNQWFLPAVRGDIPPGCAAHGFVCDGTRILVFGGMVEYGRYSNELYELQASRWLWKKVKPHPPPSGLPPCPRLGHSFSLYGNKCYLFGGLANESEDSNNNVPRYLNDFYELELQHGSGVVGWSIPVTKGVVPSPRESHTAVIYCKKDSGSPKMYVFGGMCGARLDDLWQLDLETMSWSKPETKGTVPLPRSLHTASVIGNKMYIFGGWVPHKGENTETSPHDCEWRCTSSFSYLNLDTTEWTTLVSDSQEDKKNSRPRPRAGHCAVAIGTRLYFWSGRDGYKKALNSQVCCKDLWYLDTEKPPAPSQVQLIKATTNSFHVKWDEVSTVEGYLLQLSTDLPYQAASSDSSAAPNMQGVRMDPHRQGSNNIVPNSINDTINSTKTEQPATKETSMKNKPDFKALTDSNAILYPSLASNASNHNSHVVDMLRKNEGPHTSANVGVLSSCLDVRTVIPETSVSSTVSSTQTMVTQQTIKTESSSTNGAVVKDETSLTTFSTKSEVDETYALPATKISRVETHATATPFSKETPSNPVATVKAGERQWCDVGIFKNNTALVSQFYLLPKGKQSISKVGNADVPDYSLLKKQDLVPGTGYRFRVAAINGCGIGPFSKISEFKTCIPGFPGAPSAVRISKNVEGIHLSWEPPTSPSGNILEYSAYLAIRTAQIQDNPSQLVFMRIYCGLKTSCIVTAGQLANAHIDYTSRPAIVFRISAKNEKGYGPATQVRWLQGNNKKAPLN
UniProt P04921: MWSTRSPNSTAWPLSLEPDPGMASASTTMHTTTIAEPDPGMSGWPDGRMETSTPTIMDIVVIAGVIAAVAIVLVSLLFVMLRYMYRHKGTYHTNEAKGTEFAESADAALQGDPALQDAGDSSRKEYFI
UniProt P49841: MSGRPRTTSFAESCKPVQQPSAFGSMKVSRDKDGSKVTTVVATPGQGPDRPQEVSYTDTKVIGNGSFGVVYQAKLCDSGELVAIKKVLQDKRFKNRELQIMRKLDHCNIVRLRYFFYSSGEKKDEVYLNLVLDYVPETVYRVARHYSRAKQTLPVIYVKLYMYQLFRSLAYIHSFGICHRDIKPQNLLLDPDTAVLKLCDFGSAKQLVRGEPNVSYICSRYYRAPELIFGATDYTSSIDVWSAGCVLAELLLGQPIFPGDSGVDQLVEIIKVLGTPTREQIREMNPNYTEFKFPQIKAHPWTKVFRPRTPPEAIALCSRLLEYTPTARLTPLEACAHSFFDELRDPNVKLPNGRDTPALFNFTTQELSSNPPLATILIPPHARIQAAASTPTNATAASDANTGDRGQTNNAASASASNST
UniProt P02042: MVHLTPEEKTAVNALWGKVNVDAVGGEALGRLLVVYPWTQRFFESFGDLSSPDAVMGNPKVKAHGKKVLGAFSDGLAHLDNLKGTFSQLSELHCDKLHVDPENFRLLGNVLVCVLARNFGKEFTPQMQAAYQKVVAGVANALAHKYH
UniProt P28161: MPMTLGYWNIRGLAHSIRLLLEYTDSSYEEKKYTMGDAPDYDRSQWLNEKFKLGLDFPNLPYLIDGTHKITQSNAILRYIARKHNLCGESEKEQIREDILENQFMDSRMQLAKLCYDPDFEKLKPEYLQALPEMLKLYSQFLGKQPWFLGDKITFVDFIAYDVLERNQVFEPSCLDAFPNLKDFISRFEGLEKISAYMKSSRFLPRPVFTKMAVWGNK
UniProt Q8TAA5: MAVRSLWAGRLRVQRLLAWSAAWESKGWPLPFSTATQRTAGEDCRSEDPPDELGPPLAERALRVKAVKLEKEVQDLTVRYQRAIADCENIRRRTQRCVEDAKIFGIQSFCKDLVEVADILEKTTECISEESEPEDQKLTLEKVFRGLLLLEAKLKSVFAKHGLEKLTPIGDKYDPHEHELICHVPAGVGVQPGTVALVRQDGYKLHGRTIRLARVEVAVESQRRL
UniProt Q8WUI4: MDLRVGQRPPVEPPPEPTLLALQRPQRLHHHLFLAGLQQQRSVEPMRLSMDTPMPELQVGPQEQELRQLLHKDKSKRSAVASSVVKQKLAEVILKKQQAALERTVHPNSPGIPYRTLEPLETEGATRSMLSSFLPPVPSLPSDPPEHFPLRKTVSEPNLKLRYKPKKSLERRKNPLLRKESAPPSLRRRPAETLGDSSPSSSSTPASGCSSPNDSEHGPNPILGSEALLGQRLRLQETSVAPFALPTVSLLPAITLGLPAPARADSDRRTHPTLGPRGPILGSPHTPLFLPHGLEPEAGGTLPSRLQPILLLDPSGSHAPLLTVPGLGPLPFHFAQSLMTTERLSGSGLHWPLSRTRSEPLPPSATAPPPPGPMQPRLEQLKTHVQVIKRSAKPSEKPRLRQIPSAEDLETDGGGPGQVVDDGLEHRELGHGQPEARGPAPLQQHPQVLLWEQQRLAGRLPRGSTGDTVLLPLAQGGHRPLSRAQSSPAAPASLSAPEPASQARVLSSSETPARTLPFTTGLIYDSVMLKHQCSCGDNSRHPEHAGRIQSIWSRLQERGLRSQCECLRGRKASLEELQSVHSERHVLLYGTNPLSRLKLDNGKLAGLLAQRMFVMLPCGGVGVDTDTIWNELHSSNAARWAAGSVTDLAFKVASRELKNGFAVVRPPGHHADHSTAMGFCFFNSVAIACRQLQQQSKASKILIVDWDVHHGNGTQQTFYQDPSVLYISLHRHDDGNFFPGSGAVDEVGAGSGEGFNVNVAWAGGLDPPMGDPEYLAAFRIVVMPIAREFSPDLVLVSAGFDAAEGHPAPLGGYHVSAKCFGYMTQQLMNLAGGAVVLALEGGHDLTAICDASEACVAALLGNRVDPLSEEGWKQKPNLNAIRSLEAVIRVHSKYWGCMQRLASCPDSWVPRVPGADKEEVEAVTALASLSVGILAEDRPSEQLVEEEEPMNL
UniProt Q9H0R4: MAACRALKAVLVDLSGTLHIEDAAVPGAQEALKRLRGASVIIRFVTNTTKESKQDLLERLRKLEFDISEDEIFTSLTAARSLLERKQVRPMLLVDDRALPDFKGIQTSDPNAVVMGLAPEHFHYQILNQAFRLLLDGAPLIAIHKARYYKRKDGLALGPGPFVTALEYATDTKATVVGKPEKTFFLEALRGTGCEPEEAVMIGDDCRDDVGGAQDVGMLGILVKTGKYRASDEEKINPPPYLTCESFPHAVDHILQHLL
UniProt Q969Y2: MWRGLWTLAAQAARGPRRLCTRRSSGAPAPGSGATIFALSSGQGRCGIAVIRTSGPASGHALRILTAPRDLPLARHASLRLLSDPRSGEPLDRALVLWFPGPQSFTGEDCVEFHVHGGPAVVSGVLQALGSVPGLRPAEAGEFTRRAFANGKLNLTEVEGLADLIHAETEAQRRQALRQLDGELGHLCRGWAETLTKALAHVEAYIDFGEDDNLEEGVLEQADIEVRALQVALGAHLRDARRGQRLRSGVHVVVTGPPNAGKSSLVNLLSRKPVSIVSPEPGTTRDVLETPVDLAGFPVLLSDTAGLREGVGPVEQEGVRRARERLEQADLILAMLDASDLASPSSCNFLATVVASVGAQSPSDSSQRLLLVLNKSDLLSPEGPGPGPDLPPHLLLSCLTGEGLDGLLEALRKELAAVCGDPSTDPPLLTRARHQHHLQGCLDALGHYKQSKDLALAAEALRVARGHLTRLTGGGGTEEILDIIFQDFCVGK
UniProt P10412, whole entry, looked up: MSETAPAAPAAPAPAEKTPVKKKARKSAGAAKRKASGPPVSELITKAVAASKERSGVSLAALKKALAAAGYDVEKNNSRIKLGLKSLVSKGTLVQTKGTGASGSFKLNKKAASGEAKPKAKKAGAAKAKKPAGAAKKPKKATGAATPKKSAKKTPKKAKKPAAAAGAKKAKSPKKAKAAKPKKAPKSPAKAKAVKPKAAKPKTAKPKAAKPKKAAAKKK

[2] = compound: CC1=C(SC2=C1C(=N[C@H](C3=NN=C(N32)C)CC(=O)N)C4=CC=C(C=C4)Cl)C
In short: as §1

[3] = compound: CC1=C2C(=CC=C1)N=C(N(C2=O)C3=CC=CC=C3C)CN4C=NC5=C(N=CN=C54)N
In short: as §1

[4] = compound: Cc1sc2c(c1C)C(c1ccc(Cl)cc1)=N[C@@H](CC(=O)OC(C)(C)C)c1nnc(C)n1-2
In short: as §1

[5] = compound: c1ccc([C@@H]2C[C@H]2NC2CCNCC2)cc1
In short: as §1

Target	log2 fold change [1]	log2 fold change [2]	log2 fold change [3]	log2 fold change [4]	log2 fold change [5]
GSKIP (UniProt Q9P0R6)	inactive: -0.043	inactive: -0.021	inactive: 0.005	inactive: 0.031	inactive: -0.018
HAUS4 (UniProt Q9H6D7)	inactive: -0.009	inactive: -0.043	inactive: 0.019	inactive: 0.019	inactive: 0.02
HDAC4 (UniProt P56524)	inactive: 0.027	inactive: 0.03	inactive: 0.036	inactive: -0.054	inactive: 0.074
GTF2E2 (UniProt P29084)	inactive: 0.019	inactive: -0.013	inactive: 0.026	inactive: 0.05	inactive: 0.001
HARS (UniProt P12081)	inactive: 0.025	inactive: 0.006	inactive: 0.001	inactive: 0.008	inactive: 0.002
GTF3C4 (UniProt Q9UKN8)	inactive: 0.023	inactive: -0.057	inactive: 0.025	inactive: -0.032	inactive: -0.003
H4C1 (UniProt P62805)	inactive: -0.063	inactive: 0.037	inactive: -0.031	active: 0.664	inactive: 0.125
GRIPAP1 (UniProt Q4V328)	inactive: 0.007	inactive: -0.005	inactive: 0.007	inactive: -0.02	inactive: 0.026
HABP4 (UniProt Q5JVS0)	inactive: 0.198	inactive: 0.151			
HADH isoform 2 (UniProt Q16836)	inactive: 0.012	inactive: 0.004	inactive: -0.047	inactive: 0.013	inactive: 0.086
GULP1 (UniProt Q9UBP9)	inactive: -0.003	inactive: -0.138	inactive: 0.057	inactive: -0.017	inactive: 0.028
HEATR5A (UniProt Q86XA9)	inactive: 0.025	inactive: -0.006	inactive: 0.072	inactive: -0.025	inactive: 0.038
HBA1 (UniProt P69905)	inactive: -0.046	inactive: -0.019	inactive: 0.009	inactive: -0.016	inactive: 0.113
GTF3C3 (UniProt Q9Y5Q9)	inactive: -0.018	inactive: -0.019	inactive: 0.03	inactive: -0.052	inactive: 0.032
GTF2H2 (UniProt Q13888)	inactive: 0.018	inactive: 0.003	inactive: 0.073	inactive: -0.047	inactive: -0.075
HADHA (UniProt P40939)	inactive: 0.065	inactive: -0.006	inactive: 0.102	inactive: 0.117	inactive: -0.008
GSTZ1 (UniProt G3V4T6)	inactive: 0.035	inactive: 0.002	inactive: -0.036	inactive: 0.062	inactive: -0.042
H3C1 (UniProt P68431)	inactive: 0.328	inactive: -0.102			
HDAC1 (UniProt Q13547)	inactive: -0.04	inactive: 0.02	inactive: 0.001	inactive: -0.025	inactive: -0.015
GTF3C1 (UniProt Q12789)	inactive: -0.048	inactive: 0.044	inactive: 0.012	inactive: -0.003	inactive: -0.005
HAGHL isoform 2 (UniProt Q6PII5)	inactive: 0.017	inactive: 0.001	inactive: -0.035	inactive: 0.008	
HDGFL3 (UniProt Q9Y3E1)	inactive: 0.074	inactive: -0.049	inactive: -0.008	inactive: -0.013	inactive: 0.021
HACD2 (UniProt Q6Y1H2)	inactive: -0.146	inactive: 0.251			
GSE1 (UniProt Q14687)	inactive: -0.031	inactive: 0.005	inactive: -0.002	inactive: -0.015	inactive: 0.184
GYG2 (UniProt O15488)	inactive: 0.031	inactive: 0.003	inactive: 0.036	inactive: -0.119	
HCFC2 (UniProt Q9Y5Z7)	inactive: 0.053	inactive: 0.157			
H1-3 (UniProt P16402)	inactive: 0.019	inactive: -0.005	inactive: -0.029	inactive: -0.021	inactive: 0.022
GRHPR (UniProt Q9UBQ7)	inactive: -0.002	inactive: 0.03	inactive: 0.018	inactive: -0.016	inactive: 0.121

Target	log2 fold change [1]	log2 fold change [2]	log2 fold change [3]	log2 fold change [4]	log2 fold change [5]
HDGF (UniProt P51858)	inactive: 0.021	inactive: -0.005	inactive: -0.008	inactive: -0.015	inactive: 0.02
GSS (UniProt P48637)	inactive: 0.012	inactive: -0.017	inactive: -0.019	inactive: 0.004	inactive: 0
GRB10 (UniProt Q13322)	inactive: 0.03	inactive: 0.022	inactive: 0.024	inactive: 0.045	inactive: -0.078
GRSF1 (UniProt Q12849)	inactive: 0.029	inactive: 0.014	inactive: 0.007	inactive: -0.002	inactive: -0.014
GTPBP1 (UniProt O00178)	inactive: 0.036	inactive: 0.048	inactive: 0.002	inactive: 0.011	inactive: -0.022
GYPC (UniProt P04921)	inactive: -0.088	inactive: -0.064	inactive: -0.013	inactive: -0.003	inactive: 0.031
GSK3B isoform 2 (UniProt P49841)	inactive: 0.036	inactive: -0.003	inactive: -0.042	inactive: 0.029	inactive: -0.074
HBD (UniProt P02042)	inactive: 0.006	inactive: -0.046	inactive: -0.014	inactive: 0.001	inactive: -0.033
GSTM2 (UniProt P28161)	inactive: -0.007	inactive: 0.03	inactive: -0.048	inactive: -0.037	inactive: 0.051
GSTM3 (UniProt P21266)	inactive: -0.102	inactive: -0.026	inactive: -0.014	inactive: 0.046	inactive: 0.052
GRB2 (UniProt P62993)	inactive: 0.063	inactive: -0.012	inactive: -0.001	inactive: -0.022	inactive: -0.002
GTF2H1 (UniProt P32780)	inactive: 0.006	inactive: -0.035	inactive: 0.089	inactive: 0.025	inactive: 0.006
GRPEL2 (UniProt Q8TAA5)	inactive: -0.006	inactive: 0.155	inactive: -0.001	inactive: -0.033	inactive: -0.013
HACD3 (UniProt Q9P035)	inactive: -0.09	inactive: 0.046	inactive: -0.005	inactive: -0.07	inactive: 0.017
GTSE1 (UniProt Q9NYZ3)	inactive: 0.136	inactive: -0.008	inactive: 0.031	inactive: -0.025	inactive: -0.073
HDAC7 isoform 5 (UniProt Q8WUI4)	inactive: 0.017	inactive: -0.003	inactive: 0.02	inactive: -0.015	inactive: 0.029
GTF2H3 (UniProt Q13889)	inactive: -0.016	inactive: 0.04	inactive: 0.032	inactive: 0.002	inactive: -0.02
HDHD2 (UniProt Q9H0R4)	inactive: 0.065	inactive: -0.007	inactive: 0.014	inactive: 0.011	inactive: 0.014
GTF2I (UniProt P78347)	inactive: -0.026	inactive: 0	inactive: 0.009	inactive: 0.015	inactive: 0.061
GYS1 (UniProt P13807)	inactive: 0.204	inactive: -0.038	inactive: 0.027	inactive: -0.004	inactive: -0.021
HARS2 (UniProt P49590)	inactive: 0.06	inactive: -0.056	inactive: 0.04	inactive: -0.127	inactive: -0.02
HAUS5 (UniProt O94927)	inactive: 0.043	inactive: 0.02	inactive: 0.003	inactive: -0.055	inactive: 0.089
GUK1 isoform 2 (UniProt Q16774)	inactive: -0.028	inactive: 0.008	inactive: 0.018	inactive: -0.015	inactive: -0.085
HCCS (UniProt P53701)	inactive: 0.011	inactive: -0.005	inactive: -0.01	inactive: -0.006	inactive: -0.053
GTPBP3 isoform 2 (UniProt Q969Y2)	inactive: 0.03	inactive: -0.013	inactive: 0.118	inactive: -0.096	inactive: 0.057
HDAC10 (UniProt Q969S8)	inactive: -0.076	inactive: 0.115	inactive: 0.21	inactive: 0.197	inactive: -0.055
H1-4 (UniProt P10412)	inactive: 0.014	inactive: -0.01	inactive: -0.06	inactive: -0.066	inactive: -0.08

Looked up above:
HDAC7 isoform 5 (UniProt Q8WUI4) – log2 fold change [5]: inactive: 0.029
GRIPAP1 (UniProt Q4V328) – log2 fold change [1]: inactive: 0.007

Shown field by field: entries from further up
GSTM3 (UniProt P21266)
  log2 fold change [1]: inactive: -0.102; log2 fold change [2]: inactive: -0.026; log2 fold change [3]: inactive: -0.014; log2 fold change [4]: inactive: 0.046; log2 fold change [5]: inactive: 0.052
GRB2 (UniProt P62993)
  log2 fold change [1]: inactive: 0.063; log2 fold change [2]: inactive: -0.012; log2 fold change [3]: inactive: -0.001; log2 fold change [4]: inactive: -0.022; log2 fold change [5]: inactive: -0.002
